Reference: PubChem BioAssay AID1347076 (National Center for Advancing Translational Sciences (NCATS), 2019)
Screen size: about 400,000 compounds; about 13,000 (3.2%) were called active. Inconclusive means that the source gave no clear call. Such entries were picked first, then a sample of the others. Calls follow the shape of the dose curve; as a rule, active = well fitted cell-killing curve with a large enough effect; inconclusive = small, poorly fitted or top-dose-only effect, or effect the other way; inactive = flat fitted curve, though single readings scatter. Where the call is inconclusive, the potency comes from a doubtful curve fit.
% is scaled to controls: 0 for no effect and ±100 for the full control effect; potency is read from the fitted curve at half-maximal effect.

Assay: qHTS assay for MDR1-selective chemotherapeutics: Primary screen using the drug-selected MDR subline cells KB-V1; also: nearly all actives have a fitted effect of over 60% in size
Conditions: KB-V1 MDR cells viability, CellTiter-Glo, 72 h; activity change, negative = cytotoxicity: at 46.1 µM (top of the series)
In short: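 KB-V1, DMEM (no phenol red) + 10% FBS; cpd pin-transferred, titration series; 72 h, 37 degrees C; CellTiter-Glo, luminescence. Data normalized, curve-fit.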
For `Nn1c(COc2ccccc2F)nnc1SCC(=O)NC1CCCC1`, the “activity change, negative = cytotoxicity” value was inactive: -13.7%.
In the case of `O=C1CCC(C(=O)OCC(=O)c2ccccc2)N1` (stereo unspecified), the “activity change, negative = cytotoxicity” value is reported as inactive: -1.58%.
For `CCCc1cc(C(=O)Nc2ccc(Cl)cn2)cs1`, the Potency was inconclusive: 32.6 µM [cytotoxic, single point].
For `CCN(Cc1ccccc1)S(=O)(=O)c1c(C)[nH]c(C)c1C(=O)N1CCCC1`, the “activity change, negative = cytotoxicity” value was inactive: -21.7%.
In the case of `COc1ccc(S(=O)(=O)N2CCCCCC2)cc1C(=O)NCc1cccs1`, the Potency is reported as active: 8.2 µM.
For `COc1cc(C(=O)N[C@H](C(=O)NC(C)C23CC4CC(CC(C4)C2)C3)C(C)C)cc(OC)c1OC` (stereo partly specified), the Potency was inconclusive: 0.0073 µM [cytotoxic, full curve, poor fit].
In the case of `S=C(NCc1ccccc1Cl)NC1CCCC1`, the Potency is reported as inconclusive: 29.1 µM [cytotoxic, single point].
In the case of `Cc1cc2ccccn2c1C(=O)c1cc([N+](=O)[O-])cc([N+](=O)[O-])c1`, the Potency is reported as inconclusive: 14.6 µM [cytotoxic, partial curve].
With `CC(=O)c1c(C)[nH]c(C(=O)OCC(=O)NCCC2=CCCCC2)c1C` the Potency was inconclusive: 10.3 µM [cytotoxic, partial curve].
In the case of `O=C(/C=C/c1ccc2ccccc2n1)N1CCN(c2ccccc2)CC1`, the Potency is reported as inconclusive: 29.1 µM [cytotoxic, single point].
For `COc1ccc(N2CCN(c3oc(-c4ccco4)nc3C#N)CC2)cc1`, the Potency was active: 14.6 µM.
In the case of `COc1ccc(OC)c(CCNC(=O)Cc2ccc(NC(=O)C3=C(C)OCCS3)cc2)c1`, the Potency is reported as inconclusive: 18.4 µM [cytotoxic, partial curve, poor fit].
For `CC(=O)c1cccc(NC(c2ccc(F)cc2)c2nnc(-c3ccccc3)o2)c1` (stereo unspecified), the “activity change, negative = cytotoxicity” value was inactive: -12.7%.
With `c1ccc(-c2nnc(N3CCN(c4ccccn4)CC3)c3ccccc23)cc1` the Potency was inconclusive: 25.9 µM [cytotoxic, single point].
In the case of `COc1cccc(CNC(=O)C2=Cc3cccc(OC)c3OC2)c1`, the “activity change, negative = cytotoxicity” value is reported as inactive: 15.1%.
For `CC(C)c1nc(SCC(=O)Nc2ccc([N+](=O)[O-])cc2Br)n[nH]1`, the Potency was inconclusive: 29.1 µM [cytotoxic, single point].
For `COc1cccc(/C=N/Nc2ncnc(N)c2[N+](=O)[O-])c1OC`, the “activity change, negative = cytotoxicity” value was inactive: 7.34%.
For `C=CCSc1nnc(-c2ccc([N+](=O)[O-])cc2)o1`, the Potency was inconclusive: 9.2 µM [cytotoxic, partial curve, poor fit].
For `CC(C)C(=O)NC(c1ccccc1)c1cc([N+](=O)[O-])c2cccnc2c1O` (stereo unspecified), the Potency was inconclusive: 29.1 µM [cytotoxic, single point].
In the case of `COc1ccc(CCN(C)C(=S)NC(=O)c2ccc(F)cc2Cl)cc1OC`, the Potency is reported as active: 14.6 µM.
With `CNc1cc(CSC)nc(SCc2ccc(Cl)cc2Cl)n1` the Potency was inconclusive: 16.4 µM [cytotoxic, single point].
In the case of `COC(=O)c1c(-c2ccc(Cl)cc2)noc1N1CCN(c2cccc(C(F)(F)F)c2)CC1`, the “activity change, negative = cytotoxicity” value is reported as inactive: -0.346%.
With `O=C(COc1ccc(Cl)cc1)OCc1ccc(Cl)cc1` the “activity change, negative = cytotoxicity” value was inactive: 29.9%.
For `CN(CC(=O)N(C)CC(=O)Nc1c(Cl)cccc1Cl)Cc1ccccc1F`, the “activity change, negative = cytotoxicity” value was inactive: 3.06%.
For `Cc1nnc2nc(-c3ccccc3)nc(-c3ccccc3)n12`, the “activity change, negative = cytotoxicity” value was inactive: 6.92%.
In the case of `Cc1cc2c(c(=O)o1)C(C(C)C)C(C#N)=C(N)O2` (stereo unspecified), the “activity change, negative = cytotoxicity” value is reported as inactive: -2.03%.
In the case of `CCS(=O)(=O)c1nc(S(=O)(=O)c2ccc(Cl)cc2)c(NCc2ccccn2)s1`, the Potency is reported as inconclusive: 2.91 µM [cytotoxic, partial curve].
With `C[C@H]1CN([C@@H](C)CO)C(=O)Cc2cc(NC(=O)CCN3CCOCC3)ccc2O[C@@H]1CN(C)Cc1ccc(Oc2ccccc2)cc1` the “activity change, negative = cytotoxicity” value was inactive: -0.0524%.
With `CCCn1ccc2c(OCC(=O)NCc3ccccc3Cl)cccc2c1=O` the “activity change, negative = cytotoxicity” value was inactive: 0%.
In the case of `CN(CC1CCCO1)S(=O)(=O)c1ccc(C(=O)Nc2nc3cc4c(cc3s2)OCO4)cc1` (stereo unspecified), the “activity change, negative = cytotoxicity” value is reported as inactive: 0%.
With `C[C@@H](CO)NC(=O)c1[nH]cnc1C(=O)Nc1ccc(CNC(=O)OC(C)(C)C)cc1` the Potency was inconclusive: 13 µM [rising, partial curve, poor fit].
In the case of `O=C1[C@@H]2Cc3ccccc3CN2C(=O)N1c1cccc(F)c1`, the “activity change, negative = cytotoxicity” value is reported as inactive: 5.78%.
In the case of `CCOC(=O)N1CCN(Cc2cc(=O)oc3ccc(Cl)cc23)CC1`, the Potency is reported as active: 18.4 µM.
For `CCOC(=O)C1CCCN(Cc2nc(N)nc(Nc3ccccc3)n2)C1` (stereo unspecified), the Potency was inconclusive: 23.1 µM [cytotoxic, single point].
For `CCOC(=O)CNC(=S)N(Cc1cccs1)C1CCCC1`, the Potency was inconclusive: 16.4 µM [cytotoxic, single point].
With `COc1ccccc1NC(=O)CSc1ncn(-c2ccccc2)n1` the Potency was active: 16.4 µM.
For `OCC1OC(n2ccc3c2ncn2ncnc32)C(O)C1O` (stereo unspecified), the Potency was active: 0.651 µM.
In the case of `CCN(CC)c1ccc(C(NC(=O)C(C)C)c2ccc3cccnc3c2O)cc1` (stereo unspecified), the Potency is reported as inconclusive: 1.16 µM [cytotoxic, full curve].
With `O=C(OCCO)c1c(C2=CCCCC2)oc2c1C(OCCO)CCC2` (stereo unspecified) the “activity change, negative = cytotoxicity” value was inactive: 24%.
In the case of `O=S(=O)(c1ccccc1)N1CCN(Cc2ccccc2)CC1`, the Potency is reported as inconclusive: 29.1 µM [rising, single point].
With `CC(C)Cn1cc(NC(=O)N2CCN(c3ccccc3F)CC2)c2ccccc2c1=O` the Potency was inconclusive: 29.1 µM [rising, single point].
In the case of `CCOC(=O)C1CCCCN1C(=O)c1oc2c(Cl)cc(C)cc2c1C` (stereo unspecified), the Potency is reported as inconclusive: 20.6 µM [cytotoxic, partial curve, poor fit].
For `O=C(NC1CCCC1)c1cnn2c(C(F)(F)F)cc(-c3ccco3)nc12`, the Potency was active: 5.17 µM.
In the case of `COc1ccc(OC)c(NC(=O)c2ccccc2OC(C)=O)c1`, the Potency is reported as inconclusive: 29.1 µM [cytotoxic, single point].
In the case of `CNC(=S)Nc1ccc(Br)cc1`, the activity change, negative = cytotoxicity is reported as inconclusive: 33.1%.
For `O=c1cc(-c2ccccc2F)nc(-c2ccccc2F)o1`, the Potency was inconclusive: 29.1 µM [rising, single point].
With `COc1ccc(NCc2nnc(SCC(=O)c3ccc(OC)cc3)o2)cc1` the Potency was inconclusive: 18.4 µM [cytotoxic, partial curve, poor fit].
With `Cc1nc(C(=O)N(C)C)nn1-c1cc(Cl)cc(Cl)c1` the Potency was inconclusive: 25.9 µM [rising, single point].
In the case of `O=C(COc1ccccc1)Nc1nonc1NC(=O)COc1ccccc1`, the Potency is reported as inconclusive: 20.6 µM [cytotoxic, single point].
In the case of `O=C(Nc1ccc(C2CC2(Cl)Cl)cc1)c1ccccc1Br` (stereo unspecified), the Potency is reported as active: 18.4 µM.
For `COc1ccc(S(=O)(=O)Nc2cccc3c2O[C@H](CN(C)Cc2ccc(-c4ccccc4)cc2)[C@@H](C)CN([C@H](C)CO)C3=O)cc1`, the Potency was inconclusive: 2.91 µM [rising, full curve].
With `O=C(Nc1cccnc1)c1ccc(Cl)c(S(=O)(=O)N2CCOCC2)c1` the “activity change, negative = cytotoxicity” value was inactive: 20%.
With `O=C(Cn1c2ncccc2c(=O)n1-c1ccccc1)Nc1ccc(F)c(F)c1` the “activity change, negative = cytotoxicity” value was inactive: -8.34%.
In the case of `O=S1(=O)N[C@@H](Cc2ccccc2)COc2cccc(N3CCC[C@H]3CO)c21`, the Potency is reported as inconclusive: 18.4 µM [cytotoxic, single point].
With `CCCCCc1nc2c(=O)n(C)c3ccccc3c2o1` the “activity change, negative = cytotoxicity” value was inactive: -8.22%.
With `C=CCn1c(SCC(=O)Nc2cccnc2Cl)nnc1-c1ccc(Cl)cc1` the Potency was active: 5.17 µM.
In the case of `O=C1c2ccccc2S(=O)(=O)c2cc(N3CCC4(CC3)OCCO4)ccc21`, the Potency is reported as active: 7.31 µM.
For `C[C@H]1CN(S(=O)C(C)(C)C)[C@H](CCO)/C1=C\c1ccccc1` (stereo partly specified), the “activity change, negative = cytotoxicity” value was inactive: -0.14%.
In the case of `Cc1ccc(S(=O)(=O)CC(=O)Nc2cc(C)on2)cc1`, the “activity change, negative = cytotoxicity” value is reported as inactive: 3.36%.
In the case of `Cc1nc(CC(=O)c2ccc(O)c(C)c2O)cs1`, the “activity change, negative = cytotoxicity” value is reported as inactive: 0%.
For `Cc1cc(C)c(NC(=O)CCCN2CCOCC2)c(C)c1`, the “activity change, negative = cytotoxicity” value was inactive: 5.63%.
In the case of `Cc1nc2c(C)cccn2c(=O)c1NC(=O)c1cccc2ccccc12`, the “activity change, negative = cytotoxicity” value is reported as inactive: 4.8%.
For `CC(=O)N1CCc2c(sc(NC(=O)C3CCCCC3)c2C(N)=O)C1`, the Potency was inconclusive: 0.58 µM [cytotoxic, full curve].
For `CCC(C)[C@H](NC(=O)NCc1ccc(Cl)cc1)C(=O)O` (stereo partly specified), the Potency was inconclusive: 10.3 µM [rising, partial curve, poor fit].
In the case of `CN(CC(=O)Nc1ccc(F)c(Cl)c1)S(=O)(=O)c1ccc2c(c1)n(C)c(=O)c(=O)n2C`, the “activity change, negative = cytotoxicity” value is reported as inactive: -2.53%.
In the case of `COc1ccc(OC)c(/C=C2\SC(=S)N(N3CCOCC3)C2=O)c1`, the Potency is reported as inconclusive: 25.9 µM [rising, single point].
For `CC[C@@]1(c2ccccc2OC)ON(c2ccccc2C(F)(F)F)C1=O`, the Potency was inconclusive: 29.1 µM [cytotoxic, single point].
In the case of `Cc1cc(C2=NNC(=NC3CC3)SC2)c(C)n1-c1ccccc1F`, the “activity change, negative = cytotoxicity” value is reported as inactive: 12.2%.
For `Nc1c(-c2nc(-c3cccs3)no2)nnn1-c1cccc(Cl)c1`, the Potency was inconclusive: 1.3 µM [rising, full curve, poor fit].
For `Cc1ccc2c(c1)c1c3n2CCCNC3CCC1` (stereo unspecified), the “activity change, negative = cytotoxicity” value was inactive: 4.57%.
For `Cc1cc(C)cc(NC(=O)/C(C#N)=C/c2cn(CC(=O)NCc3ccco3)c3ccccc23)c1`, the Potency was inconclusive: 20.6 µM [cytotoxic, single point].
With `Clc1ccc2oc(-c3ccccc3)cc(=NCCCN3CCOCC3)c2c1` the Potency was active: 20.6 µM.
In the case of `Cc1cc(=O)n2nc(N3CCCC(C(=O)NCc4ccc(F)cc4)C3)sc2n1` (stereo unspecified), the “activity change, negative = cytotoxicity” value is reported as inactive: 5.33%.
With `COc1ccc(C2CC(c3ccc(C)cc3)=NN2C(=O)c2ccccc2)cc1` (stereo unspecified) the Potency was inconclusive: 25.9 µM [cytotoxic, single point].
For `CCCC1(C(=O)OCC)NC(c2ccc(N(C)C)cc2)C2C(=O)N(c3ccc4c(c3)OCCO4)C(=O)C21` (stereo unspecified), the Potency was inconclusive: 7.31 µM [cytotoxic, partial curve, poor fit].
In the case of `CCC(C)Oc1cccc(C(=O)Nc2ccccc2N2CCOCC2)c1` (stereo unspecified), the “activity change, negative = cytotoxicity” value is reported as inactive: -6.64%.
